In PubChem BioAssay AID2551 (National Center for Advancing Translational Sciences (NCATS), 2010):
Out of some 310,000 compounds screened, about 17,000 (5.5%) were called active. This list was built around the results that the source calls inconclusive (neither active nor inactive); the mix of calls is not that of the screen. Calls follow the shape of the dose curve; as a rule, active = well fitted inhibition curve with a large enough effect; inconclusive = small, poorly fitted or top-dose-only effect, or effect the other way; inactive = no such curve, though single readings can be large or run the other way. Where the call is inconclusive, the potency comes from a doubtful curve fit.

Chains of the proteins cited; added tags and fusions are not shown. Lines headed by an entry give the natural chain unless they say otherwise; changes in a name come on top.
UniProt P51450: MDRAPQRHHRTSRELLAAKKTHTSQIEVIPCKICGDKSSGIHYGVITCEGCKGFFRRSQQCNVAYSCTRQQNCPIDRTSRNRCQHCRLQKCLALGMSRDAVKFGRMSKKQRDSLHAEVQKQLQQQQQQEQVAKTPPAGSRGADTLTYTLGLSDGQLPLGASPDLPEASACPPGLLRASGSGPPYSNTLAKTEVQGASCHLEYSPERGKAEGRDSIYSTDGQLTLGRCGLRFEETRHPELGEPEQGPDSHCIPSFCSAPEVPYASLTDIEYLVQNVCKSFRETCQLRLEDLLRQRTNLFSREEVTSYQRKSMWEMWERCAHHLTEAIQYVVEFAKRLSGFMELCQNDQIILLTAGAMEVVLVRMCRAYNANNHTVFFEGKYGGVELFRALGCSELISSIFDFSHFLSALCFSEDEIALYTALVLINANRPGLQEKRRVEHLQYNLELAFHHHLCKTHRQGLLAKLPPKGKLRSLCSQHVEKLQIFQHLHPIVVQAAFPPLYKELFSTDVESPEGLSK

molecular target: Nuclear receptor ROR-gamma (Mus musculus) (UniProt P51450); experiment: qHTS for inhibitors of ROR gamma transcriptional activity; conditions: Drosophila S2 Gal4-RORgamma UAS-luciferase reporter, 20 h; activity change, negative = inhibition: at 53.6 µM (top of the series); also: nearly all actives have a fitted effect of over 60% in size
Summary of the method: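 Luciferase reporter read in Schneider cells carrying Gal4-RORγ (mouse) and UAS-Photinus luciferase; cells given compound 1 h before 700 uM copper sulfate induction, then incubated 20 h at ambient temperature.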
% is scaled to controls: 0 for no effect and ±100 for the full control effect; potency is read from the fitted curve at half-maximal effect.

Row | SMILES | Potency | activity change, negative = inhibition
1 | OCCN(CCO)c1nc(N2CCCCC2)c2nc(N(CCO)CCO)nc(N3CCCCC3)c2n1 | inconclusive: 1.41 µM [activator, full curve, poor fit] | 
2 | COc1ccc(NC(=O)NCCCN2CCN(c3ccccc3F)CC2)cc1 |  | inactive: -7.23%
3 | Cn1cc(C[C@H](C(=O)O)N2C(=O)c3ccc(C(=O)O)cc3C2=O)c2ccccc21 |  | inactive: -3.09%
4 | ClC(Cl)Cl |  | inactive: -0.904%
5 | CN(C)c1ccc(-c2sc(Nc3ccccc3)n[n+]2-c2ccc(F)cc2)cc1 | active: 14.1 µM | 
6 | COc1ccc(/C=C/C(=O)c2ccc(OC)cc2OC)c(OC)c1 | inconclusive: 35.5 µM [activator, single point] | 
7 | CCOC(=O)C1Nc2ccc(Br)cc2C2C=CCC12 (stereo not drawn) |  | inactive: 15.8%
8 | O=C(CNC(c1ccccc1)c1ccccc1)Nc1cc([N+](=O)[O-])ccc1Cl | inconclusive: 20 µM [activator, single point] | 
9 | CCOC(=O)c1ccc(NC(=O)CCc2nc(-c3cccc(C)c3)no2)cc1 |  | inactive: 7.94%
10 | C=CCn1c(Cc2cccs2)nnc1SCC(=O)Nc1ccc(OC)cc1 |  | inactive: 10.1%
11 | O=C(Oc1cccnc1)c1ccccc1[N+](=O)[O-] | inconclusive: 31.6 µM [inhibitor, single point] | 
12 | CCCN(CCC)Cc1c(C(=O)N/N=C/c2cccs2)nnn1-c1nonc1N | active: 12.6 µM | 
13 | CCn1c(SCC(=O)Nc2nc3ccc(OC)cc3s2)nc2c1c(=O)n(C)c(=O)n2C | inconclusive: 8.91 µM [inhibitor, single point] | 
14 | COc1ccccc1C(=O)Nc1ccc2[nH]ncc2c1 |  | inactive: 3.57%
15 | CCCCNc1nc(N(C)c2ccccc2)nc(-n2ccnc2)n1 | active: 10 µM | 
16 | N=c1occ(C(=O)c2cc(F)ccc2O)cc1C(=O)NC1CCCCC1 | inconclusive: 11.2 µM [activator, partial curve] | 
17 | CC1CCCC(C)N1C(=O)COC(=O)C(Cc1ccccc1)NC(=O)c1cccs1 (stereo not drawn) | inconclusive: 35.5 µM [activator, single point] | 
18 | CCNC(=S)NNC(=O)CCn1cc(C)cn1 | active: 6.31 µM | 
19 | CCOC(=O)C1CCN(CC(=O)Nc2c(C(=O)OC)[nH]c3ccc(Cl)cc23)CC1 | inconclusive: 35.5 µM [inhibitor, single point] | 
20 | CSc1ccc(/C=C(/NC(=O)c2ccco2)C(=O)NCc2ccco2)cc1 | inconclusive: 35.5 µM [inhibitor, single point] | 
21 | COc1cccc(-c2csc(N3CCN(C(=S)Nc4ccccc4Cl)CC3)n2)c1 | active: 11.2 µM | 
22 | CCC(=O)Nc1nc2ccccc2n1CCN(CC)CC | inconclusive: 0.708 µM [inhibitor, partial curve, poor fit] | 
23 | NS(=O)(=O)c1ccc(NC(=O)/C=C/c2cn(-c3ccccc3)nc2-c2cccc(Cl)c2)cc1 |  | inactive: 16.8%
24 | CC(C)Cn1c(=O)c2ccccc2n2c(CCC(=O)O)nnc12 |  | inactive: -8.62%

A draw from above in order of length of the SMILES, ascending:
Row | SMILES | Potency | activity change, negative = inhibition
24 | CC(C)Cn1c(=O)c2ccccc2n2c(CCC(=O)O)nnc12 |  | inactive: -8.62%
10 | C=CCn1c(Cc2cccs2)nnc1SCC(=O)Nc1ccc(OC)cc1 |  | inactive: 10.1%
3 | Cn1cc(C[C@H](C(=O)O)N2C(=O)c3ccc(C(=O)O)cc3C2=O)c2ccccc21 |  | inactive: -3.09%

Later entries.

Row | SMILES | Potency | activity change, negative = inhibition
25 | S=C(NCc1ccc(Cl)cc1)NC1CCN(Cc2ccccc2)CC1 | inconclusive: 35.5 µM [inhibitor, single point] | 
26 | CCCC(=O)Nc1ncnc2c1ncn2[C@@H]1O[C@H]2COP(=O)(O)O[C@@H]2[C@@H]1OC(=O)CCC |  | inactive: -6.98% [at 16.9 µM]
27 | O=C(Nc1nccs1)c1ccc(-c2ccccc2[N+](=O)[O-])o1 | inconclusive: 22.4 µM [inhibitor, partial curve, poor fit] | 
28 | O=C(c1cnn2c(C(F)F)cc(-c3ccccc3)nc12)N1CCSCC1 | inconclusive: 0.0045 µM [activator, full curve, poor fit] | 
29 | O=C(COC(=O)c1cc(-c2ccco2)nc2ccccc12)NCc1ccc2c(c1)OCO2 | inconclusive: 15.8 µM [activator, partial curve, poor fit] | 
30 | CC(C)=CCCC(C)C1CC[C@@]2(C)C3=C(CC[C@@]12C)C1(C)CCC(O)C(C)(C)C1CC3 (stereo partly drawn) |  | inactive: -33.8%
31 | COc1cc2c(cc1OC)C(c1ccc(C(F)(F)F)cc1)CC(=O)N2 (stereo not drawn) | inconclusive: 35.5 µM [activator, single point] | 
32 | Cc1sc(-n2c(C)cc(C=O)c2C)c(C(=O)O)c1C | inconclusive: 3.16 µM [inhibitor, single point] | 
33 | COc1ccc(CCN(Cc2nc3ccccc3c(=O)[nH]2)C(=O)c2ccco2)cc1 | active: 12.6 µM | 
34 | CCOC(=O)c1cnc(-n2nc(C)cc2C)nc1NCc1ccc2c(c1)OCO2 | active: 3.55 µM | 
35 | CN(CC(=O)Nc1cccc(F)c1)C(=O)c1ccc(N2CCOCC2)c([N+](=O)[O-])c1 | inconclusive: 12.6 µM [activator, single point] | 
36 | CCCOc1ccc(C(=O)CCNC(Cc2c[nH]c3ccccc23)C(=O)O)cc1 (stereo not drawn) | inconclusive: 35.5 µM [inhibitor, single point] | 
37 | CN1CCc2c(n(CC(O)CN3C(=O)c4ccccc4S3(=O)=O)c3ccccc23)C1=O (stereo not drawn) | inconclusive: 17.8 µM [activator, single point] | 
38 | COc1cccc(/C=N\NC(=O)C2=NNC(=O)C2C)c1O (stereo not drawn) | inconclusive: 14.1 µM [inhibitor, single point] | 
39 | CC(C)(C)c1ccc(S(=O)(=O)Nc2ccc(Cc3ccncc3)cc2)cc1 | inconclusive: 1.78 µM [activator, single point] | 
40 | CSC(=S)N/N=C/c1ccc(N(C)C)cc1 | active: 0.251 µM | 
41 | COc1ccc(-c2cc3ccccc3n2CC(O)CN2CCN(CCO)CC2)cc1 (stereo not drawn) |  | inactive: 14.8%
42 | Cc1ccc(NC(=O)Cn2cccc2)c(Br)c1 |  | inactive: 7.44%
43 | O=c1c2c3nc4ccccc4nc3n(Cc3ccccc3)c2ncn1Cc1ccco1 | inconclusive: 35.5 µM [inhibitor, single point] | 
44 | O=S(=O)(ON(c1ccccc1)S(=O)(=O)c1ccccc1)c1ccccc1 |  | inactive: 26.8%
45 | Cn1c(O)c(N=Nc2ccc(F)cc2)c2ccccc21 | inconclusive: 3.16 µM [inhibitor, partial curve] | 
46 | Cc1ccc(NC(=S)N2CCN(Cc3ccccc3)CC2)cc1 | active: 7.94 µM | 
47 | O=C(NCc1ccccn1)C(=O)Nc1nc(-c2ccccc2)cs1 | active: 10 µM | 
48 | Cc1ccc(NC(=O)c2c(C)nn(-c3ccccc3)c2Cl)cc1 | inconclusive: 8.91 µM [activator, partial curve] | 
